The list shows a part of the results.
What was measured:
Assay in all cases: log2 fold change, soluble protein after heating vs DMSO (PISA); higher = thermal stabilisation; K562 cells, 10 uM, 30 min; active = over 0.2 and 3.5 SD of the protein, either way, in both replicates (recomputed)
erlotinib = compound: C#Cc1cccc(Nc2ncnc3cc(OCCOC)c(OCCOC)cc23)c1 [erlotinib]
Procedure, shortened: (§1)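 K562 cells at 2×10^6 cells/mL were given 10 μM compound for 30 min. Aliquots then went through 3 min of heating across 48°C-58°C, were pooled, and were extracted in PBS with 0.5% NP-40 at 4°C, and the supernatant after 21,000xg for 90 min was quantified by TMTpro 16plex LC-MS/MS with channel sums equalised. Thermal stability relative to control samples, from duplicates, is given as log2 fold change.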

The chains behind the UniProt entries cited, without tags or fusion partners. Where a name states a change or a piece, a line headed by the entry shows the natural chain unless it says otherwise.
UniProt P13995: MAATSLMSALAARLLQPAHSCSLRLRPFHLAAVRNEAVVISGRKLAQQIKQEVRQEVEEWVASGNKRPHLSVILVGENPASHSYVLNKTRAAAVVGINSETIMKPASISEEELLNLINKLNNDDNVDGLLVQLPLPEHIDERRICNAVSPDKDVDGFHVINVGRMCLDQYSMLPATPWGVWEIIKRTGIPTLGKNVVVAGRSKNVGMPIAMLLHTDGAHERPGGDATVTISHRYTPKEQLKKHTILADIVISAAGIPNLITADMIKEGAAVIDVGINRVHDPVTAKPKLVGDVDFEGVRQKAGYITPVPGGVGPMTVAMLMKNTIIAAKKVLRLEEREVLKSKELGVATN
UniProt Q96H55, whole entry, looked up: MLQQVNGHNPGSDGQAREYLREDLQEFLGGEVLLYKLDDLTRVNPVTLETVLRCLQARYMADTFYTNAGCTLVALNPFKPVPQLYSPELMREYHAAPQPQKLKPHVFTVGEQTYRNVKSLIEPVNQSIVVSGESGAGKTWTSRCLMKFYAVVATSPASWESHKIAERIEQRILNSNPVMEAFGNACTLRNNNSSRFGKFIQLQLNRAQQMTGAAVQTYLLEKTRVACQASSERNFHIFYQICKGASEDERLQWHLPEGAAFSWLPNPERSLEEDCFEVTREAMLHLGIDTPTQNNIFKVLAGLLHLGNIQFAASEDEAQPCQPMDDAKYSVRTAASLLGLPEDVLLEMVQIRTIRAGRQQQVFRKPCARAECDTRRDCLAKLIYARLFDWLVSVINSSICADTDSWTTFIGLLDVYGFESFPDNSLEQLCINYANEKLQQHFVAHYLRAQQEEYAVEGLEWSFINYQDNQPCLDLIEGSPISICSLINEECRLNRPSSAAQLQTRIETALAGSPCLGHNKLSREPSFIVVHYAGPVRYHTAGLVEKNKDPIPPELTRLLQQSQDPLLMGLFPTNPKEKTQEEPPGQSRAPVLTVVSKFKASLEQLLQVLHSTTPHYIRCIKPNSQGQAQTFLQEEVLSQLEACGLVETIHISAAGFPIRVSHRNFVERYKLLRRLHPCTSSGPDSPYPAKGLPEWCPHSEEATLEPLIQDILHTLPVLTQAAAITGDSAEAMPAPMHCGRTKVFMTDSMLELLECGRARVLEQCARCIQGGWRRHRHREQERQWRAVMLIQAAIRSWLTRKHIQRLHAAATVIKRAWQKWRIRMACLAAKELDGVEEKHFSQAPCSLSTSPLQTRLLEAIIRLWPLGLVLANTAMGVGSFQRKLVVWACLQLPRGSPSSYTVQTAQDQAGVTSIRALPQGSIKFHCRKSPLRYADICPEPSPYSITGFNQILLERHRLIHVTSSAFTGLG
UniProt P14649: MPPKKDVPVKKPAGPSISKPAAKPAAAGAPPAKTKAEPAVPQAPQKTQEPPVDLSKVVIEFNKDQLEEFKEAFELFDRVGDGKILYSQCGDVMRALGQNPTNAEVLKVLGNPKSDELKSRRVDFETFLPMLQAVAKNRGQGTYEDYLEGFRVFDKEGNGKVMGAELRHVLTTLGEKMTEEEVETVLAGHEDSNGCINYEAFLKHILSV
UniProt P84157: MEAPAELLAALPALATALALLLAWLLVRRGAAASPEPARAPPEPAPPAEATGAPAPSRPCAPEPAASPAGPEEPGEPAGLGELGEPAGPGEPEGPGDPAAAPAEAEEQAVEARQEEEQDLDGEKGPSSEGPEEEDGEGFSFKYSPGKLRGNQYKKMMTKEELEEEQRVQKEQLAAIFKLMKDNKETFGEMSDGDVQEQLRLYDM
UniProt Q7Z406, whole entry, looked up: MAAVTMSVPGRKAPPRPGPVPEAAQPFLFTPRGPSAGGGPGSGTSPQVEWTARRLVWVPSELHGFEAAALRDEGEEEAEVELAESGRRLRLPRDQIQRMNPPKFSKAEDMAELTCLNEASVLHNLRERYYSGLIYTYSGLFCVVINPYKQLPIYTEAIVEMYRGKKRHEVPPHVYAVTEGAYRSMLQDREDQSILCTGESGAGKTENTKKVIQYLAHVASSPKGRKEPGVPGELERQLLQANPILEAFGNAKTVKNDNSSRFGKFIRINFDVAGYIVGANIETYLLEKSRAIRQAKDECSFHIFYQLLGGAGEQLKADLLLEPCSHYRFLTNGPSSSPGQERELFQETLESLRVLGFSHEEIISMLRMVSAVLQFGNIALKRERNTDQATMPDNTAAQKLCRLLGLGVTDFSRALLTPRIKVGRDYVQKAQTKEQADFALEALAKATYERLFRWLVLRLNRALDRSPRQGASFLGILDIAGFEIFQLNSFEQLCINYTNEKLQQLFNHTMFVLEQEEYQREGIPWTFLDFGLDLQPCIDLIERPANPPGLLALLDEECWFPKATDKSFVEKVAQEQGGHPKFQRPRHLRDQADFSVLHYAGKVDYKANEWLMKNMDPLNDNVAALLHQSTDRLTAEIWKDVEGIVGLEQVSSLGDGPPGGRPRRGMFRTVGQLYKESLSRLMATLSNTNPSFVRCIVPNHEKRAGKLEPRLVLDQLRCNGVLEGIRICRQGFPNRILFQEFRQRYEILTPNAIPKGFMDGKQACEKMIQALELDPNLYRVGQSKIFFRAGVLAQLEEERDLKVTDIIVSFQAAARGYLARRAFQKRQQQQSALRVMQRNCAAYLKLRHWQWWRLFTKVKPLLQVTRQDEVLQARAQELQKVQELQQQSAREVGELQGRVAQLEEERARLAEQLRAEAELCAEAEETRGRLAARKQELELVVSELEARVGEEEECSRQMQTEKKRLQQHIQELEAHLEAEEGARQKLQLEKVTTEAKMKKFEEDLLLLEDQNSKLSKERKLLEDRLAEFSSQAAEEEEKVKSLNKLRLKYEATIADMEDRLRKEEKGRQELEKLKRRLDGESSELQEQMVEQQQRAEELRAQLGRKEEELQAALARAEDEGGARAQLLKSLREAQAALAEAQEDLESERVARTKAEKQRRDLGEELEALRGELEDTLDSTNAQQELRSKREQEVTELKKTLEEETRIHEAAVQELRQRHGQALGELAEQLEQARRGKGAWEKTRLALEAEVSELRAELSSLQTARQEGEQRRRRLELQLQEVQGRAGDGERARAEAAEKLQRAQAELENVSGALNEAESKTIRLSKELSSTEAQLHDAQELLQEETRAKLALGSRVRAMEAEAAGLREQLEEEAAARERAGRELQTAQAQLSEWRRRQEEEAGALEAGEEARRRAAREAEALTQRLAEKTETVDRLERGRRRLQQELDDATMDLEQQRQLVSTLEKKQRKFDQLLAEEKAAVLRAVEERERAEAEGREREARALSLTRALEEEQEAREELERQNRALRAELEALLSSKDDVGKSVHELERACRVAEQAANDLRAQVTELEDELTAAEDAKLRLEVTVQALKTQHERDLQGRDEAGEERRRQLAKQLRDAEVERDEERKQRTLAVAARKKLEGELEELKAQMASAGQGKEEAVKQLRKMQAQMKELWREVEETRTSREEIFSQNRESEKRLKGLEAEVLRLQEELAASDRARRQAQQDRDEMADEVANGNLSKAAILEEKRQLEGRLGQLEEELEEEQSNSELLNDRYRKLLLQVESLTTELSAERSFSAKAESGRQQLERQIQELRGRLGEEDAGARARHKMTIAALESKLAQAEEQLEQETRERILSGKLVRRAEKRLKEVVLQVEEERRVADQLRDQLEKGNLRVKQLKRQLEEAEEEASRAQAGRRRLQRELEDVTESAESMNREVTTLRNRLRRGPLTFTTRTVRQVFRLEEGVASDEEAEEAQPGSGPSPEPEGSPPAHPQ
UniProt P53602: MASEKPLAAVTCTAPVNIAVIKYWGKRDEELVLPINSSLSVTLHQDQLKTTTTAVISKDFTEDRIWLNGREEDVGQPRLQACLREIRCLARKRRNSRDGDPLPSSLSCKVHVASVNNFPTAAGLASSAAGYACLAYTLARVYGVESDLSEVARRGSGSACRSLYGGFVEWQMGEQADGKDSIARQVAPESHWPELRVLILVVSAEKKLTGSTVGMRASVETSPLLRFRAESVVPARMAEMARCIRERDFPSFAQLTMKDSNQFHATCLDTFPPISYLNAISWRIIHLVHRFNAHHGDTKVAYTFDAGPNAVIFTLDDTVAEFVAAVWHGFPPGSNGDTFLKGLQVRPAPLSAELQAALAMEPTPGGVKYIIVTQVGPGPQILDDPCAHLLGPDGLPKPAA
UniProt Q13614, whole entry, looked up: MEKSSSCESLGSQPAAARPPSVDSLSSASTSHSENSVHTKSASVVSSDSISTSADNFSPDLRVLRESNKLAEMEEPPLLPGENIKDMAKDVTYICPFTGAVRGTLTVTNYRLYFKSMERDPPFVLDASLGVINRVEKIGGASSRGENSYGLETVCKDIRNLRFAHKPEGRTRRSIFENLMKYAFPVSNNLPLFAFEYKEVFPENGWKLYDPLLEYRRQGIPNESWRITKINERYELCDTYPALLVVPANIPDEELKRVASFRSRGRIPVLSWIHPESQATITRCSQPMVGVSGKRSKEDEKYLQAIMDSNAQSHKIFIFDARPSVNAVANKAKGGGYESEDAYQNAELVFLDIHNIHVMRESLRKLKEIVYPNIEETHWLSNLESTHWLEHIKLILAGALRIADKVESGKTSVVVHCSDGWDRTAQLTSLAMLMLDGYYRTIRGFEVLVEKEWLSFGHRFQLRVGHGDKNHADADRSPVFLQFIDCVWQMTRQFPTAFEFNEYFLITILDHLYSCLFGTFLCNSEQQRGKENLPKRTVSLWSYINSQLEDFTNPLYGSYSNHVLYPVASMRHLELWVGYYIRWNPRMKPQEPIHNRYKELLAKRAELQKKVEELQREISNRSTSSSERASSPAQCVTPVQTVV
UniProt P42285: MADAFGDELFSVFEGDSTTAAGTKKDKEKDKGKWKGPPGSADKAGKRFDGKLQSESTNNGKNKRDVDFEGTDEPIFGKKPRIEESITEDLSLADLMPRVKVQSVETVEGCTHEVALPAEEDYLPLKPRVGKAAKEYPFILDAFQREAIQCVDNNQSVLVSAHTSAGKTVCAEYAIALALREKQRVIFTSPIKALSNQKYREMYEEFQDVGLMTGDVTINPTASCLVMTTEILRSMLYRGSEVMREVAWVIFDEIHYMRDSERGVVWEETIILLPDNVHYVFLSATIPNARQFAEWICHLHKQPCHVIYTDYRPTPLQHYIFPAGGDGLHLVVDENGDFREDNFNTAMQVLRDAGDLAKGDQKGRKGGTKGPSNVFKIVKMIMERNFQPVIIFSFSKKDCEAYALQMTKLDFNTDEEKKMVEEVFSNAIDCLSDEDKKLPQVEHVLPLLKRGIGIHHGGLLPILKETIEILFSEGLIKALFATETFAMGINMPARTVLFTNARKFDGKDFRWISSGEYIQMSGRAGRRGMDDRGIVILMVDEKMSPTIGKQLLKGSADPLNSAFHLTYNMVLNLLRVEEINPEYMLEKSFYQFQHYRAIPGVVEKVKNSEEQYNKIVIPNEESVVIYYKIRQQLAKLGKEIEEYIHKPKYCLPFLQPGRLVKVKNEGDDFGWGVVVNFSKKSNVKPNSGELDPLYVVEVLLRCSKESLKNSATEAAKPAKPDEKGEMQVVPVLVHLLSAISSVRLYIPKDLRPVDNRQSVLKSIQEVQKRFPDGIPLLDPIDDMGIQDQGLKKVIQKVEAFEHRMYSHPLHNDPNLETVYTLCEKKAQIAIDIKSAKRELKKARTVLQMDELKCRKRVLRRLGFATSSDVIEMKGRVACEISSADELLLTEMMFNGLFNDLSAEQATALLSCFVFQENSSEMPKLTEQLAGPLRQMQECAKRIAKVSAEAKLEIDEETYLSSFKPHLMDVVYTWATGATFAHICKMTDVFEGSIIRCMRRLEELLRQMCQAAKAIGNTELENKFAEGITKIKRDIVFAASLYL
UniProt Q13505: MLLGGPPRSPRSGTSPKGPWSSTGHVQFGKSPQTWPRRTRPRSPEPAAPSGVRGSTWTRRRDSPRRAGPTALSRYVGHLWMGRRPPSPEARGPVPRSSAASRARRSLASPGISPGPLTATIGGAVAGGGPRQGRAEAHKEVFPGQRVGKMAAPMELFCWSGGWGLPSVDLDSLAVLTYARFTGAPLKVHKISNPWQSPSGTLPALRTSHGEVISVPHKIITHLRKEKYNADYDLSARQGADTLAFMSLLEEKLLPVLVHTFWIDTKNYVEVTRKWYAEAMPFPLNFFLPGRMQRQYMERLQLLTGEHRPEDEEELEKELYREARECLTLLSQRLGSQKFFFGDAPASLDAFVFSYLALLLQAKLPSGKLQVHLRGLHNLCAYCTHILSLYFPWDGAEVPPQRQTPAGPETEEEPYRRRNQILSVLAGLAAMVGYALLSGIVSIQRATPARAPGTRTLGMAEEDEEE
UniProt Q969H8: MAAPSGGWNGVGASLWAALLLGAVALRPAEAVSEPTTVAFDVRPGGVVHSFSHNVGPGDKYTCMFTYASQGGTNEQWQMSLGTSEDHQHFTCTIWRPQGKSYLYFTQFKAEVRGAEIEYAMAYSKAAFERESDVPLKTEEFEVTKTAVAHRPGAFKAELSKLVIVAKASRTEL

[1] = compound: C/C(=N\NC(=O)C1=CC(=CC=C1)S(=O)(=O)N2CCOCC2)/C3=C(C=CC(=C3)Cl)O
Procedure, shortened: as §1

[2] = compound: C1=CC(=C(C=C1Cl)C2=NC3=NC=CN=C3C(=N2)NC4=CC=NC=C4)F
Procedure, shortened: as §1

[3] = compound: C1=CC(=CC=C1C2=NC3=C(N2)C=C(C=C3)C(=O)N)OC4=CC=C(C=C4)Cl
Procedure, shortened: as §1

[4] = compound: C1=CC2=C(C=CC(=C2)/C=C\3/C(=O)NC(=NCC4=CC=CS4)S3)N=C1
Procedure, shortened: as §1

[5] = compound: C1=CC2=NC=CN=C2C=C1/C=C/3\C(=O)NC(=O)S3
Procedure, shortened: as §1

[6] = compound: C1=CC=C(C=C1)C2=NC(=C(N2)C3=CC=NC=C3)C4=CC(=C(C=C4)Cl)O
Procedure, shortened: as §1

[7] = compound: C1=CC=C2C(=C1)C3=NNC4=CC=CC(=C43)C2=O
Procedure, shortened: as §1

[8] = compound: C1CCN(C1)C(=O)NC2=CC=CC(=C2)NC3=NC=C(C(=N3)NCCC4=CN=CN4)Br
Procedure, shortened: as §1

[9] = compound: C1CN(CCC1(CC2=CC=C(C=C2)Cl)N)C3=NC=NC4=C3C=CN4
Procedure, shortened: as §1

| Target | log2 fold change (erlotinib) | log2 fold change [1] | log2 fold change [2] | log2 fold change [3] | log2 fold change [4] | log2 fold change [5] | log2 fold change [6] | log2 fold change [7] | log2 fold change [8] | log2 fold change [9] |
| --- | --- | --- | --- | --- | --- | --- | --- | --- | --- | --- |
| MVB12A (UniProt Q96EY5) | inactive: -0.06 | inactive: 0.082 | inactive: 0.071 | inactive: -0.004 | inactive: 0.091 | inactive: -0.061 | inactive: -0.025 | inactive: 0.105 | inactive: 0.047 | inactive: -0.005 |
| MTHFD2 (UniProt P13995) | inactive: 0.058 | inactive: -0.015 | inactive: 0.078 | inactive: -0.003 | inactive: 0.035 | inactive: 0.015 | inactive: 0 | inactive: 0.004 | inactive: 0.038 | inactive: 0.005 |
| MYO19 (UniProt Q96H55) | inactive: 0.032 | inactive: -0.047 | inactive: -0.103 | inactive: -0.114 | inactive: 0.011 | inactive: 0.093 | inactive: 0.027 | inactive: 0.07 |  |  |
| MRPS28 (UniProt Q9Y2Q9) | inactive: -0.08 | inactive: 0.071 | inactive: 0.003 | inactive: 0.096 | inactive: -0.061 | inactive: -0.001 | inactive: 0.028 | inactive: 0.082 | inactive: -0.044 | inactive: -0.091 |
| MYL6B (UniProt P14649) | inactive: -0.053 | inactive: -0.029 | inactive: 0.035 | inactive: 0.053 | inactive: 0.004 | inactive: 0.035 | inactive: -0.055 | inactive: -0.044 | inactive: 0.007 | inactive: -0.029 |
| MYO1C (UniProt O00159) | inactive: 0.015 | inactive: -0.02 | inactive: -0.19 | inactive: -0.047 | inactive: 0.054 | inactive: 0.041 | inactive: -0.014 | inactive: -0.049 | inactive: 0.023 | inactive: 0.072 |
| MRPS35 (UniProt P82673) | inactive: -0.068 | inactive: -0.028 | inactive: -0.048 | inactive: 0.14 | inactive: 0.003 | inactive: -0.043 | inactive: 0.022 | inactive: 0.096 | inactive: 0.042 | inactive: -0.08 |
| MRTFB isoform 5 (UniProt Q9ULH7) | inactive: -0.004 | inactive: 0 | inactive: 0.055 | inactive: 0.013 | inactive: 0.062 | inactive: 0.021 | inactive: -0.044 | inactive: -0.01 | inactive: -0.036 | inactive: -0.017 |
| MSL1 (UniProt Q68DK7) | inactive: 0.185 | active: -0.603 | inactive: 0.106 | inactive: -0.193 | inactive: 0.069 | inactive: -0.033 | inactive: 0.066 | inactive: -0.026 |  |  |
| MRPS7 (UniProt Q9Y2R9) | inactive: -0.055 | inactive: 0.053 | inactive: -0.076 | inactive: 0.129 | inactive: -0.037 | inactive: 0.011 | inactive: -0.004 | inactive: 0.036 | inactive: -0.036 | inactive: -0.045 |
| MXRA7 (UniProt P84157) | inactive: -0.052 | inactive: -0.109 | inactive: -0.083 | inactive: 0.047 | inactive: -0.067 | inactive: 0.018 | inactive: -0.033 | inactive: 0.037 | inactive: -0.038 | inactive: 0.013 |
| MTR (UniProt Q99707) | inactive: 0.063 | inactive: 0.024 | inactive: -0.109 | inactive: -0.049 | inactive: 0.005 | inactive: 0.018 | inactive: -0.03 | inactive: 0.002 | inactive: 0.005 | inactive: -0.016 |
| MYO1D (UniProt O94832) | inactive: 0.037 | inactive: -0.006 | inactive: -0.216 | inactive: 0.013 | inactive: 0.084 | inactive: -0.051 | inactive: 0.094 | inactive: 0.018 | inactive: -0.08 | inactive: -0.05 |
| MTMR3 (UniProt Q13615) | inactive: 0.035 | inactive: -0.011 | inactive: -0.052 | inactive: 0.01 | inactive: -0.101 | inactive: 0.059 | inactive: 0.041 | inactive: 0.079 | inactive: -0.034 | inactive: 0.068 |
| MYH14 isoform 2 (UniProt Q7Z406) | inactive: 0.008 | inactive: -0.008 | inactive: 0.137 | inactive: -0.005 | inactive: -0.043 | inactive: 0.015 | inactive: 0.046 | inactive: -0.025 | inactive: -0.01 | inactive: 0.022 |
| MVD (UniProt P53602) | inactive: 0.004 | inactive: 0.05 | inactive: 0.044 | inactive: 0.033 | inactive: 0.033 | inactive: -0.006 | inactive: 0.028 | inactive: 0.02 | inactive: -0.046 | inactive: 0.079 |
| MRPS5 (UniProt P82675) | inactive: -0.077 | inactive: 0.038 | inactive: 0.009 | inactive: 0.193 | inactive: 0.007 | inactive: -0.008 | inactive: 0.027 | inactive: 0.158 | inactive: -0.035 | inactive: -0.085 |
| MRPL58 (UniProt Q14197) | inactive: -0.056 | inactive: -0.074 | inactive: -0.115 | inactive: 0.04 | inactive: -0.052 | inactive: -0.048 | inactive: -0.048 | inactive: 0.066 | inactive: -0.014 | inactive: -0.179 |
| MTSS2 (UniProt Q765P7) | inactive: 0.028 | inactive: -0.027 | inactive: 0.053 | inactive: -0.018 | inactive: 0.083 | inactive: 0.045 | inactive: 0.03 | inactive: 0.01 | inactive: -0.008 | inactive: 0.071 |
| MRPS26 (UniProt Q9BYN8) | inactive: -0.081 | inactive: 0.004 | inactive: 0.004 | inactive: 0.157 | inactive: 0.038 | inactive: 0.088 | inactive: -0.042 | inactive: 0.06 | inactive: -0.19 | inactive: 0.024 |
| MTMR2 (UniProt Q13614) | inactive: 0.004 | inactive: 0.054 | inactive: 0.009 | inactive: 0.037 | inactive: 0.007 | inactive: -0.024 | inactive: -0.067 | inactive: 0.015 | inactive: -0.046 | inactive: -0.02 |
| MTFR1L (UniProt Q9H019) | inactive: -0.002 | inactive: -0.013 | inactive: -0.202 | inactive: 0.064 | inactive: -0.001 | inactive: -0.03 | inactive: 0.077 | inactive: 0.13 | inactive: 0.036 | inactive: -0.027 |
| MTREX (UniProt P42285) | inactive: -0.015 | inactive: 0.045 | inactive: 0.035 | inactive: 0.023 | inactive: -0.001 | inactive: 0.027 | inactive: 0.007 | inactive: 0.018 | inactive: 0.011 | inactive: 0 |
| MRPS23 (UniProt Q9Y3D9) | inactive: -0.038 | inactive: 0.052 | inactive: -0.067 | inactive: 0.16 | inactive: 0.003 | inactive: 0.043 | inactive: 0.075 | inactive: 0.118 | inactive: 0.001 | inactive: -0.099 |
| MRPS27 isoform 2 (UniProt Q92552) | inactive: -0.044 | inactive: -0.058 | inactive: 0.018 | inactive: 0.061 | inactive: 0.056 | inactive: 0.024 | inactive: 0.074 | inactive: 0.086 | inactive: -0.048 | inactive: -0.106 |
| MRPS30 (UniProt Q9NP92) | inactive: -0.253 | inactive: -0.065 | inactive: -0.036 | inactive: 0.082 | inactive: -0.066 | inactive: 0.028 | inactive: -0.024 | inactive: 0.155 | inactive: -0.038 | inactive: -0.16 |
| MTX1 (UniProt Q13505) | inactive: -0.002 | inactive: -0.005 | inactive: 0.104 | inactive: -0.042 | inactive: 0.009 | inactive: 0.007 | inactive: 0.042 | inactive: -0.005 | inactive: -0.018 | inactive: 0.019 |
| MYO6 isoform 6 (UniProt Q9UM54) | inactive: -0.044 | inactive: 0.005 | inactive: 0.067 | inactive: 0.01 | inactive: 0.009 | inactive: 0.01 | inactive: -0.002 | inactive: -0.034 | inactive: 0.032 | inactive: 0.061 |
| MTHFR isoform 2 (UniProt P42898) | inactive: 0.021 | inactive: 0.042 | inactive: 0.081 | inactive: 0.018 | inactive: 0.053 | inactive: 0.01 | inactive: 0.001 | inactive: 0.048 | inactive: 0.039 | inactive: 0.046 |
| MYDGF (UniProt Q969H8) | inactive: -0.01 | inactive: -0.042 | inactive: 0.031 | inactive: 0.013 | inactive: -0.039 | inactive: 0.008 | inactive: 0.013 | inactive: -0.008 | inactive: -0.004 | inactive: 0.064 |

In another format: entries from further up.
Target	log2 fold change (erlotinib)	log2 fold change [1]	log2 fold change [2]	log2 fold change [3]	log2 fold change [4]	log2 fold change [5]	log2 fold change [6]	log2 fold change [7]	log2 fold change [8]	log2 fold change [9]
MRTFB isoform 5 (UniProt Q9ULH7)	inactive: -0.004	inactive: 0	inactive: 0.055	inactive: 0.013	inactive: 0.062	inactive: 0.021	inactive: -0.044	inactive: -0.01	inactive: -0.036	inactive: -0.017
MSL1 (UniProt Q68DK7)	inactive: 0.185	active: -0.603	inactive: 0.106	inactive: -0.193	inactive: 0.069	inactive: -0.033	inactive: 0.066	inactive: -0.026		
MRPS7 (UniProt Q9Y2R9)	inactive: -0.055	inactive: 0.053	inactive: -0.076	inactive: 0.129	inactive: -0.037	inactive: 0.011	inactive: -0.004	inactive: 0.036	inactive: -0.036	inactive: -0.045
MXRA7 (UniProt P84157)	inactive: -0.052	inactive: -0.109	inactive: -0.083	inactive: 0.047	inactive: -0.067	inactive: 0.018	inactive: -0.033	inactive: 0.037	inactive: -0.038	inactive: 0.013
MTR (UniProt Q99707)	inactive: 0.063	inactive: 0.024	inactive: -0.109	inactive: -0.049	inactive: 0.005	inactive: 0.018	inactive: -0.03	inactive: 0.002	inactive: 0.005	inactive: -0.016

Reference: the supplement of paper PMC10849652
